Assay results from patent publication US11971413B2, “Peptoid, and its preparation method and use” (BEIJING BOE TECHNOLOGY DEVELOPMENT CO., LTD., priority 2019, dated 2024).
For at least one compound, name, drawing or mass did not settle the structure. Where a SMILES comes first, the peptide text is derived from it. [ ]: non-standard residue; d: D form. ξ: configuration not given here. N(CH2CH2COOH)Gly = O=C(O)CCNCC(=O)O; Gly(N-CH2CH2OH) = O=C(O)CNCCO; Nleu = CC(C)CNCC(=O)O; Nlys = NCCCCNCC(=O)O; ξC = NC(CS)C(=O)O

Target: T1, EpCAM protein (Homo sapiens, UniProt P16422)
T1 construct: purchased
T1 sequence (P16422 24-314): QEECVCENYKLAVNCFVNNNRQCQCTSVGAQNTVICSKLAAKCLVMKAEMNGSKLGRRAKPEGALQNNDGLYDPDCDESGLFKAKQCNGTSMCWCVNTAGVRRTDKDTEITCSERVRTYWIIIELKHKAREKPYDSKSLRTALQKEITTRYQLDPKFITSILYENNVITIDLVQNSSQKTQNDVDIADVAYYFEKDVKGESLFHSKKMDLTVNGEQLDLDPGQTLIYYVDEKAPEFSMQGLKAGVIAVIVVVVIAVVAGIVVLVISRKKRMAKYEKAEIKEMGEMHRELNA
Assay: Surface plasmon resonance imaging (SPRi) binding of chip-immobilised peptoid to EpCAM protein
Details: peptoid spotted on 3D chip, EpCAM protein 5.68-91.2 nM in PBS, fitted with BIA evaluation 4.1, read-out: equilibrium dissociation constant KD

Structure (SMILES): CC(C)CNCC(=O)N(CCCCN)CC(=O)N(CCO)CC(=O)N(CCC(=O)O)CC(=O)N(CCCCN)CC(=O)N(CCCCN)CC(=O)NC(CS)C(N)=O (stereo not shown) [Example 1] (H-[Nleu][Nlys][Gly(N-CH2CH2OH)][N(CH2CH2COOH)Gly][Nlys][Nlys][ξC]-NH2)
- Kd: 0.0677 µM
